The record followed here is article PMC8461901.

Chains of the proteins cited; added tags and fusions are not shown.
UniProt Q93009: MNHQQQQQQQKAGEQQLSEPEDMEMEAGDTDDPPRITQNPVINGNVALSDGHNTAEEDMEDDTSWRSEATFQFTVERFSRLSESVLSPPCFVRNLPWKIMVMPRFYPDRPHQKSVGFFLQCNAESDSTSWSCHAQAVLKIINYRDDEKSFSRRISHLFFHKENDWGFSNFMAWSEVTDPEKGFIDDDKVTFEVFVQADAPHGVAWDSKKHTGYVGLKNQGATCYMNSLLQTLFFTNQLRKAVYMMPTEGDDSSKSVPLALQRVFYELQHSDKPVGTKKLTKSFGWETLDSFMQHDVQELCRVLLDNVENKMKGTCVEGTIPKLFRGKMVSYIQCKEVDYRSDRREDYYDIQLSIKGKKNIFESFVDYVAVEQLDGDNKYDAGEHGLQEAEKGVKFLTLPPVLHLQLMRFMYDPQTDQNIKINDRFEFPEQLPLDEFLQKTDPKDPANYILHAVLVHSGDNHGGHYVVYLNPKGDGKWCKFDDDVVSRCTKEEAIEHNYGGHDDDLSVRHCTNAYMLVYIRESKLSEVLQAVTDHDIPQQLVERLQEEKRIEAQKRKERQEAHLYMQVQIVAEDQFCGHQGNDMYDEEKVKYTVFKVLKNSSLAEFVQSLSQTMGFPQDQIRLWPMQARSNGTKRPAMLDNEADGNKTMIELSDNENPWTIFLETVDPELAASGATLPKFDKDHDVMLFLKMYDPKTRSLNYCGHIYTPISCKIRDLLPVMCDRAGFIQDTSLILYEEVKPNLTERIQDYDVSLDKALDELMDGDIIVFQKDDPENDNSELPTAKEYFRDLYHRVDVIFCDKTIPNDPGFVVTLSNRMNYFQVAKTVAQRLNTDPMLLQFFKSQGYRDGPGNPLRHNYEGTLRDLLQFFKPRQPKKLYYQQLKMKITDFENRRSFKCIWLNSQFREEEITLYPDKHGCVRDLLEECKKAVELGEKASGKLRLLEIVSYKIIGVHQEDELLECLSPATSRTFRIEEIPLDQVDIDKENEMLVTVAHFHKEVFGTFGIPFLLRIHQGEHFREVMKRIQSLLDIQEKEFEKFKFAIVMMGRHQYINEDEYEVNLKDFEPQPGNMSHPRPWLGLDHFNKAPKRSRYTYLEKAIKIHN
UniProt P18085: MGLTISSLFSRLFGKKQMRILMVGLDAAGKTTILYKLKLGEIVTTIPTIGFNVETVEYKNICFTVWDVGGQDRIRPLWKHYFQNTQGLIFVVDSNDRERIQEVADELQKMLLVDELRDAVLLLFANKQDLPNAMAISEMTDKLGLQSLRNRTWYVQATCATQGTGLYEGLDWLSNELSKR

This assay addresses Ubiquitin-specific protease 7 (human (endogenous in SHG-140)) (UniProt Q93009). In words: affinity purification with mass spectrometry; anti-USP7 added to SHG-140 cell protein extracts, protein A/G magnetic beads overnight at 4 °C, precipitates resolved by SDS-PAGE, Coomassie stained, LC-MS/MS (Q-Exactive).

No constants are given. Whether binding was seen depends on the method and setting. In cells and extracts the contact can be indirect. These calls come from enrichment with a bait or labelling near it, and not all partners need be listed.

As for “ADP-ribosylation factor 4 (from UniProt P18085 1-180)”, the binding result is “binds”.
